No constants are given. Whether binding was seen depends on the method and setting. In cells and extracts the contact can be indirect. Some results given as binding are weak or reduced against the parent protein; the word gives no strength. Where a sequence is shown, tags or fusion partners need not be part of it.
Target: T1, Flag-tagged full-length CNN2 (H2-calponin) (UniProt Q99439)
T1 sequence: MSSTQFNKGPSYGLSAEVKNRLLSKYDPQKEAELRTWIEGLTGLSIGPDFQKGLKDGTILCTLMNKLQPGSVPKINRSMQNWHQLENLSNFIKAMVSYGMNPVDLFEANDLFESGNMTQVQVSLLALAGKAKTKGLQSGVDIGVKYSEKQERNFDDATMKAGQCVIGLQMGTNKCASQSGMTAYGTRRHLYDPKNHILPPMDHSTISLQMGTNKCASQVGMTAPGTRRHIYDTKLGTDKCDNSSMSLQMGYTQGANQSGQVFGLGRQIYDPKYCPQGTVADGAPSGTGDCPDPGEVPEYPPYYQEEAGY
Assay: co-IP; total proteins of RKO cells overexpressing Flag-tagged full-length CNN2, immunoprecipitated with an anti-Flag antibody, Western blot

Amino acid sequences for entries named in this document (tags omitted).
UniProt P46937: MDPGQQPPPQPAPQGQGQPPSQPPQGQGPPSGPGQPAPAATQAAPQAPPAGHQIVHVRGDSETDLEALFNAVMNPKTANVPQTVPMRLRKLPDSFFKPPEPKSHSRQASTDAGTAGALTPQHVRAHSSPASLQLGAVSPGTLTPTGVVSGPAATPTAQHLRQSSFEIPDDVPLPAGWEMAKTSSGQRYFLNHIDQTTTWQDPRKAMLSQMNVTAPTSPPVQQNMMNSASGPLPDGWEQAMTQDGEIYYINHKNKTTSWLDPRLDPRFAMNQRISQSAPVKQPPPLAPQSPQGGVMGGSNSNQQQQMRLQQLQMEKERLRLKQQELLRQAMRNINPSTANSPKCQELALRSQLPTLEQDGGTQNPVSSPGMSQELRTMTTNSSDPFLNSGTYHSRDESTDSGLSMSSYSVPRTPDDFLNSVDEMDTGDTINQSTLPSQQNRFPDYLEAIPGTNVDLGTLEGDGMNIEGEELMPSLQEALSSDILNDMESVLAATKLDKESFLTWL

- binding: binds
Substance: Yes kinase-associated protein 1 (YAP1) (from UniProt P46937 1-504)

From article PMC10185810
